Test results taken from US20160200813A1.
These are yes or no findings as the source states them, for the method shown. Some results given as binding are weak or reduced against the parent protein; the word gives no strength.

Chains of the proteins cited; added tags and fusions are not shown. Lines headed by an entry give the natural chain unless they say otherwise; changes in a name come on top.
UniProt Q14114: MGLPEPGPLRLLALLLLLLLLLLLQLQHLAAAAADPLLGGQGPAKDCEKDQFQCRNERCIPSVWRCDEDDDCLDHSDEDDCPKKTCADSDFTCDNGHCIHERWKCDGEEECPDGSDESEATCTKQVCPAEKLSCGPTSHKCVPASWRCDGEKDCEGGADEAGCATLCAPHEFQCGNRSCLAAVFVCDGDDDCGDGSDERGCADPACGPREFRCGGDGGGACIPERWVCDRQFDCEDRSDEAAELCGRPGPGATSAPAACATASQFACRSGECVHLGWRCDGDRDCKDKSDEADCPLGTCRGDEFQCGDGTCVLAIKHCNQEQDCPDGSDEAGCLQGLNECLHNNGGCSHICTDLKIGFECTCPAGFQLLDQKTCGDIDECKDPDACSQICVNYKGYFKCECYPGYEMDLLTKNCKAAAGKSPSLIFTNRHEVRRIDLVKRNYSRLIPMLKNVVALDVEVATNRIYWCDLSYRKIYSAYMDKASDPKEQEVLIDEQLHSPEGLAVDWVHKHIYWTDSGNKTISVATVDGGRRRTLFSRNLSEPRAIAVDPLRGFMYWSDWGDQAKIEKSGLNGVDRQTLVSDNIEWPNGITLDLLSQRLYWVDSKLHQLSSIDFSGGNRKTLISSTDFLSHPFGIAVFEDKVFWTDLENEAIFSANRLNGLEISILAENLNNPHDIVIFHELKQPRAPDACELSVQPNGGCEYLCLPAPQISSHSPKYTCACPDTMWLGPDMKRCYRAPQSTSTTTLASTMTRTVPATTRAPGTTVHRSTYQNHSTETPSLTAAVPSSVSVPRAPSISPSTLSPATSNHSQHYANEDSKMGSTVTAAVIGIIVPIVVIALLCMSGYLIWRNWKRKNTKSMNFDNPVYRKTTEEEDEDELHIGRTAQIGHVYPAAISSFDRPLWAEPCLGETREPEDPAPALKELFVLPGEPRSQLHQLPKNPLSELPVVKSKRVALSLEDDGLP

Columns and labels:
[1] = molecular target: Human LRP-8 (isoform 3) expressed on cells (human) (UniProt Q14114); assay: Reactivity column of Table 10
[2] = molecular target: Human LRP-8 (isoform 3) expressed on cells (human) (UniProt Q14114); assay: binding to LRP-8 transfected HEK293 cells
[3] = molecular target: Human LRP-8 (isoform 3) expressed on cells (human) (UniProt Q14114); assay: FACS, hybridoma supernatant on hLRP-8-HEK293 stable cells (Example 2.2); bar series 3, 9, 27, 81 without unit; y axis without title
[4] = molecular target: Human LRP-8 (isoform 3) expressed on cells (human) (UniProt Q14114); assay: flow cytometry on cells transiently transfected with pB-LRP8-hum against an irrelevant construct (Example 1.9); isotype printed IgG2a/k
[5] = molecular target: Human LRP-8 (isoform 3) expressed on cells (human) (UniProt Q14114); assay: flow cytometry on cells transiently transfected with pB-LRP8-hum against an irrelevant construct (Example 1.9); isotype printed IgG2b/k
[6] = molecular target: Human LRP-8 (isoform 3) expressed on cells (human) (UniProt Q14114); assay: cell-based MSD assay
[7] = molecular target: Human LRP-8 (isoform 3) expressed on cells (human) (UniProt Q14114); assay: cell-based binding assay (FIG. 13)
[8] = molecular target: Human LRP-8 (isoform 3) expressed on cells (human) (UniProt Q14114); assay: cell-based MSD assay on hLRP8-293 cells
[9] = molecular target: Human LRP-8 (isoform 3) expressed on cells (human) (UniProt Q14114); assay: cell-based MSD binding (Table 17)
[10] = molecular target: Human LRP-8 (isoform 3) expressed on cells (human) (UniProt Q14114); assay: cell-based MSD binding; species of LRP-8 not given

B1: anti-LRP-8 ML199-11H1.5B2 murine antibody (muFc) (antibody, V domains shown)
VH: EVQLVESGGDLVKPGGSLKLSCAASRFTFSNYGMSWVRQTPDKRLEWVATISSGGRYTYYPDSVKGRFTISRDNAKNTLYLQMSSLRSEDTAMYYCARDYLYAMDYWGQGTSVTVSS
VL: DVVMTQTPLSLPVSLGDQASISCRSSQSLVYSNGNTYLHWYLQKPGQSPKVLMYKVSNRFSGVSDRFSGSGSGTDFTLKISRVEAEDLGVYFCSQSTHVPLTFGAGTKLELK
Q: Which binding [1] does the source give for B1 here?
A: binds

Q: And the binding [2]?
A: binds

Q: What about the binding [3] of the same binder?
A: binds

B2: anti-LRP-8 BGK.5D10.E4 [r/m IgG2a/K] (antibody, V domains shown)
VH: QVQLRETGPDLVQPTQTLSLTCTVSGFSLTNYPVQWVRQPPGSGLEWLGIMWPSGAADFNPALKSRLSISRDTSKSQFFLRMDNLQTDDTAIYFCARGRGYSSPYAMDAWGQGTSVTVSS
VL: DIQMTQSPASLSASLGETVSIECLASEDIYNNLAWYQQKPGKSPHLLIHFTSNLQDGVPSRFSGSGSGTQYSLKINSLESEDGATYFCLQDSEYPLTFGSGTKLEIK
Q: How did the binding [4] turn out when B2 was run?
A: binds

B3: anti-LRP-8 BGK.6E3.F4 [r/m IgG2a/K] (antibody, V domains shown)
VH: EVQLVESGGGLVQPGKSLKLSCAASGFTFSDYNMAWVRQAPKKGLEWVATIMYDGSRTFYRDSVKGRYTFSRDNAKSTLYLQMDSLRSEDTATYYCATGRNWFAYWGQGTLVTVSS
VL: DIIMTQSPSSLAVSAGETVTINCKSSQSLLSSGKQKNYLAWYQQKPGQSPKLLIYLASTRESGVPDRFIGSGSGTDFTLTISSMQAEDLAIYYCQQHYDTPLTFGSGTKLEIK
Q: How did the binding [4] turn out when B3 was run?
A: binds

B4: anti-LRP-8 BGK.2C8.E6.D3 [r/m IgG2a/K] (antibody, V domains shown)
VH: QVTLKESGPGILQPSQTLSLTCTFSGFSLNTYGMGVGWVRQPSGKGLEWLANIWWDDDKFYNPSLKNRLTVSKDTSNNQAFLRITNGDTADTATYFCARILGEDIGGALDAWGQGTSVTVSS
VL: DTVLTQSPALAVSPGERVSISCRASEGVNSYMHWYQQNPGQQSKLLIYRTSNLASGVPARFGGSGSGTDFTLTIDPVEADDTATYFCQQSWNDPPTFGGGTKLELK
Q: Which binding [5] does the source give for B4 here?
A: binds

B5: anti-LRP-8 ML201-2B4.2B1.2H10 murine antibody (muFc) (antibody, V domains shown)
VH: DVKLVASGGGLVKPGGSLKLSCAASGFTLSRYAMSWVRQTPEKRLEWVAYIRNGGDYIYYADTVKGRFTISRDNARNTLYLQMSSLKSEDTAMYYCTREGSYYNFDYWGQGTTLTVSS
VL: DVLMTQTPLSLPVSLGDQASISCRSSQSIVHSNGNTYLEWYLQKPGQSPNLLIFKVSNRFSGVPDRFIGSGSGTDFTLKISRVEAEDLGVYYCFQGSHVPWTFGGGTKLEIK
Q: Which results are given for B5?
A: binding [2]: binds; binding [3]: binds

B6: anti-LRP-8 BGK-2C8.8C antibody (antibody, V domains shown)
VH: EVQLVESGGGLVQPGRSLKLSCAASGFTVSDYYMAWVRQAPKKGLEWVASISYEGSSTYYGDSVKGRFTISRDNAKSILYLQMNSLRSEDTATYYCARPLRYYGYNYRFAYWGQGTLVTVSS
VL: DIQMSQSPPVLSASVGDRVTLSCKASQNIHKNLDWYQQKHGEAPKLLIYYTDNLQTGIPSRFSGSGSGTDYTLTISSLQPEDVATYYCYQYNSGPTFGAGTKLELQ
Q: How did the binding [6] turn out when B6 was run?
A: binds

Q: And the binding [7]?
A: binds

Q: What about the binding [8] of the same binder?
A: binds

B7: anti-LRP-8 ML201-8F3.3D7 murine antibody (muFc) (antibody, V domains shown)
VH: EVQLVESGGDLVKPGGSLKLSCAASRFTFSNFGMSWVRQTPDKRLEWVATISSGGRYTYYPDSVKGRFTISRDNAKNTLYLQMSSLRSEDTAMYYCARDYLYAMDYWGQGTSVTVSS
VL: DVVMTQTPLSLPVSLGDQASISCRSSQSLVYSNGNTYLHWYLQKPGQSPKVLMYKVSNRFSGVSDRFSGSGSGTDFTLKISRVEAEDLGVYFCSQSTHVPLTFGAGTKLELK
Q: For B7, which binding [2] is on record?
A: binds

Q: What about the binding [3] of the same binder?
A: binds

B8: chimeric anti-LRP-8 ML199.11H1.5B2 antibody [mu/hu IgG1/k] LALA (antibody, V domains shown)
VH: EVQLVESGGDLVKPGGSLKLSCAASRFTFSNYGMSWVRQTPDKRLEWVATISSGGRYTYYPDSVKGRFTISRDNAKNTLYLQMSSLRSEDTAMYYCARDYLYAMDYWGQGTSVTVSS
VL: DVVMTQTPLSLPVSLGDQASISCRSSQSLVYSNGNTYLHWYLQKPGQSPKVLMYKVSNRFSGVSDRFSGSGSGTDFTLKISRVEAEDLGVYFCSQSTHVPLTFGAGTKLELK
Q: Which binding [7] does the source give for B8 here?
A: binds

B9: BGK-7F7 (GENOVAC candidate clone of Table 17) (antibody, V domains shown)
VH: QVTLKESGPGILQPSQTLSLTCTFSGFSLSTYGLGVGWIRQPSGKGLEWLANIWWDDAKYYNPSLKNRLTISKDTSNNQAFLKIPNVDTADTARYYCARTTKPYYFDYWGQGVMVTVSS
VL: HFVLAQPNSVSTNLGSTVKLSCKRSTANIGSNYVNWYQQHEGRSPTTLIYRDDRRPDGVPDRFSGSIDRSSNSALLTINNVQTEDEADYFCQSYSSGINIFGGGTKLTVL
Q: What does the source list for B9?
A: binding [9]: binds; binding [10]: binds

B10: anti-LRP-8 BGK-9D10-2 antibody (CL-105967) (antibody, V domains shown)
VH: EVQLVESGGGLVQSGRSLKLSCAASGFTFSNYYMAWVRQAPKKGLEWVATITTSGSRSFYPDSVKGRFTISRDNAKSSLYLQINSLKSEDTATYYCARRGPLGYFDHWGRGVMVTVSS
VL: DIQMTQSPPSLPASLGDKVTITCQASQNINKYIAWYQQKPGKAPRLLIRFTSTLESDTPSRFSGSGSGRDYSFSISNVESEDFASYYCLHYDNLPPWTFGGGTKLELK
Q: Which binding [7] does the source give for B10 here?
A: binds
